± gives the standard deviation of the averaged measurements. This is one part of the list. Part of the spread comes from offsets between plates or batches.
These compounds were tested on E18 rat cortical neuron-glia co-culture (assay: total nuclei (DAPI) / Olig2+ nuclei (ratio); higher = more depletion of OPC/OL lineage cells). Conditions: 1 µM; treatment time: 8 days (DIV5-DIV13).
Experimental: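 Primary E18 rat cortical co-cultures (neurons, astrocytes, OPC/OLs) in 96-well plates. NIH Clinical Collection compounds were added on DIV5 in myelination medium at 5 and 1 µM for 8 days, then cells were fixed on DIV13 and stained for MBP, Olig2 and DAPI. Myelination (contiguous aligned MBP fiber length per Olig2+ nucleus) was normalised to plate controls (0.1% DMSO = 0, 1 µM DAPT = 100) as % of DAPT. Each value is from duplicate wells with 4 image fields each. Fiber length/MBP is the fiber score divided by the MBP differentiation score; DAPI/Olig2 is the ratio of total to Olig2+ nuclei.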

| Structure (SMILES) | total nuclei |
| --- | --- |
| CCC[C@@H]1C[C@@H](C(=O)N[C@@H]([C@H]2O[C@H](SC)[C@H](O)[C@@H](O)[C@H]2O)[C@@H](C)O)N(C)C1 [Lincomycin] | 2.5 |
| Cc1cccc(Nc2ccncc2S(=O)(=O)NC(=O)NC(C)C)c1 [Torsemide] | 2.84 |
| COCc1c(C(C)C)nc(C(C)C)c(/C=C/[C@@H](O)C[C@@H](O)CC(=O)O)c1-c1ccc(F)cc1 [Cerivastatin] | 19 |
| c1ccc2c(c1)CCCC2C1=NCCN1 (stereo not given) [Tyzine] | 4.24 |
| COc1ccccc1OCCNCC(O)COc1cccc2[nH]c3ccccc3c12 (stereo not given) [Carvedilol] | 4.12 |
| CN1CCN(C2=Nc3ccccc3Oc3ccc(Cl)cc32)CC1 [Loxapine] | 3.2 |
| Nc1ncnc2c1ncn2[C@@H]1O[C@H](CO)[C@@H](O)[C@@H]1O [Vidarabine] | 3.1 |
| CN1CCCC(n2nc(Cc3ccc(Cl)cc3)c3ccccc3c2=O)CC1 (stereo not given) [Azelastine] | 4.4 |
| CC(C)[C@H]1CC[C@H](C(=O)N[C@H](Cc2ccccc2)C(=O)O)CC1 [Nateglinide] | 4.05 |
| CC(C)(C)NC(=O)[C@@H]1C[C@@H]2CCCC[C@@H]2CN1C[C@@H](O)[C@H](Cc1ccccc1)NC(=O)[C@H](CC(N)=O)NC(=O)c1ccc2ccccc2n1 [Saquinavir] | 2.64 |
| CC1(C)O[C@@H]2C[C@H]3[C@@H]4CCC5=CC(=O)C=C[C@]5(C)[C@@]4(F)[C@@H](O)C[C@]3(C)[C@]2(C(=O)CO)O1 [Triamcinolone Acetonide] | 3.28 |
| Oc1c(Cl)cc(Cl)c2cccnc12 [Chloroxine] | 8.88 |
| NC(=O)c1ncn([C@@H]2O[C@H](CO)[C@@H](O)[C@H]2O)n1 [Ribavirin] | 4.06 |
| COc1cc(Cc2cnc(N)nc2N)cc(OC)c1OC [Trimethoprim] | 3.98 |
| CCCc1c(OCCCCc2nnn[nH]2)ccc(C(C)=O)c1O | 3.6 |
| c1ccc(-c2ccc(C(c3ccccc3)n3ccnc3)cc2)cc1 (stereo not given) [Bifonazole] | 3.01 |
| C/C(=C\C(=O)OCCCCCCCCC(=O)O)C[C@@H]1OC[C@H](C[C@@H]2O[C@H]2[C@@H](C)[C@H](C)O)[C@@H](O)[C@H]1O [Mupirocin] | 3.94 |
| OCCN1CCN(CCCN2c3ccccc3Sc3ccc(Cl)cc32)CC1 [Perphenazine] | 4.96 |
| COc1ccnc(C[S+]([O-])c2nc3cc(OC(F)F)ccc3[nH]2)c1OC (stereo not given) [Pantoprazole] | 2.88 |
| Nc1ccn([C@@H]2CS[C@H](CO)O2)c(=O)n1 [Lamivudine] | 4.58 ± 1.2 |

Same assay, conditions: 5 µM; treatment time: 8 days (DIV5-DIV13)

| Structure (SMILES) | total nuclei |
| --- | --- |
| CCC[C@@H]1C[C@@H](C(=O)N[C@@H]([C@H]2O[C@H](SC)[C@H](O)[C@@H](O)[C@H]2O)[C@@H](C)O)N(C)C1 [Lincomycin] | 2.5 |
| Cc1cccc(Nc2ccncc2S(=O)(=O)NC(=O)NC(C)C)c1 [Torsemide] | 2.7 |
| COCc1c(C(C)C)nc(C(C)C)c(/C=C/[C@@H](O)C[C@@H](O)CC(=O)O)c1-c1ccc(F)cc1 [Cerivastatin] | > 40 |
| c1ccc2c(c1)CCCC2C1=NCCN1 (stereo not given) [Tyzine] | 4 |
| COc1ccccc1OCCNCC(O)COc1cccc2[nH]c3ccccc3c12 (stereo not given) [Carvedilol] | 10 |
| CN1CCN(C2=Nc3ccccc3Oc3ccc(Cl)cc32)CC1 [Loxapine] | 3.3 |
| Nc1ncnc2c1ncn2[C@@H]1O[C@H](CO)[C@@H](O)[C@@H]1O [Vidarabine] | 8.7 |
| CN1CCCC(n2nc(Cc3ccc(Cl)cc3)c3ccccc3c2=O)CC1 (stereo not given) [Azelastine] | 4.4 |
| CC(C)[C@H]1CC[C@H](C(=O)N[C@H](Cc2ccccc2)C(=O)O)CC1 [Nateglinide] | 4.1 |
| CC(C)(C)NC(=O)[C@@H]1C[C@@H]2CCCC[C@@H]2CN1C[C@@H](O)[C@H](Cc1ccccc1)NC(=O)[C@H](CC(N)=O)NC(=O)c1ccc2ccccc2n1 [Saquinavir] | 3.4 |
| CC1(C)O[C@@H]2C[C@H]3[C@@H]4CCC5=CC(=O)C=C[C@]5(C)[C@@]4(F)[C@@H](O)C[C@]3(C)[C@]2(C(=O)CO)O1 [Triamcinolone Acetonide] | 2.9 |
| Oc1c(Cl)cc(Cl)c2cccnc12 [Chloroxine] | > 40 |
| NC(=O)c1ncn([C@@H]2O[C@H](CO)[C@@H](O)[C@H]2O)n1 [Ribavirin] | 4.2 |
| COc1cc(Cc2cnc(N)nc2N)cc(OC)c1OC [Trimethoprim] | 4.1 |
| CCCc1c(OCCCCc2nnn[nH]2)ccc(C(C)=O)c1O | 3.6 |
| c1ccc(-c2ccc(C(c3ccccc3)n3ccnc3)cc2)cc1 (stereo not given) [Bifonazole] | 11.2 |
| C/C(=C\C(=O)OCCCCCCCCC(=O)O)C[C@@H]1OC[C@H](C[C@@H]2O[C@H]2[C@@H](C)[C@H](C)O)[C@@H](O)[C@H]1O [Mupirocin] | 4.6 |
| OCCN1CCN(CCCN2c3ccccc3Sc3ccc(Cl)cc32)CC1 [Perphenazine] | > 40 |
| COc1ccnc(C[S+]([O-])c2nc3cc(OC(F)F)ccc3[nH]2)c1OC (stereo not given) [Pantoprazole] | 3 |
| Nc1ccn([C@@H]2CS[C@H](CO)O2)c(=O)n1 [Lamivudine] | 5.9 ± 3.1 |

Reference: the supplement of paper PMC4840960
